Assay results published in patent US12187712B2, “Cardiac sarcomere inhibitors” (Cytokinetics, Inc., priority 2018, dated 2025).
For at least one compound, name, drawing or mass did not settle the structure.

Chains of the proteins cited; added tags and fusions are not shown.
UniProt Q9BE39, whole entry: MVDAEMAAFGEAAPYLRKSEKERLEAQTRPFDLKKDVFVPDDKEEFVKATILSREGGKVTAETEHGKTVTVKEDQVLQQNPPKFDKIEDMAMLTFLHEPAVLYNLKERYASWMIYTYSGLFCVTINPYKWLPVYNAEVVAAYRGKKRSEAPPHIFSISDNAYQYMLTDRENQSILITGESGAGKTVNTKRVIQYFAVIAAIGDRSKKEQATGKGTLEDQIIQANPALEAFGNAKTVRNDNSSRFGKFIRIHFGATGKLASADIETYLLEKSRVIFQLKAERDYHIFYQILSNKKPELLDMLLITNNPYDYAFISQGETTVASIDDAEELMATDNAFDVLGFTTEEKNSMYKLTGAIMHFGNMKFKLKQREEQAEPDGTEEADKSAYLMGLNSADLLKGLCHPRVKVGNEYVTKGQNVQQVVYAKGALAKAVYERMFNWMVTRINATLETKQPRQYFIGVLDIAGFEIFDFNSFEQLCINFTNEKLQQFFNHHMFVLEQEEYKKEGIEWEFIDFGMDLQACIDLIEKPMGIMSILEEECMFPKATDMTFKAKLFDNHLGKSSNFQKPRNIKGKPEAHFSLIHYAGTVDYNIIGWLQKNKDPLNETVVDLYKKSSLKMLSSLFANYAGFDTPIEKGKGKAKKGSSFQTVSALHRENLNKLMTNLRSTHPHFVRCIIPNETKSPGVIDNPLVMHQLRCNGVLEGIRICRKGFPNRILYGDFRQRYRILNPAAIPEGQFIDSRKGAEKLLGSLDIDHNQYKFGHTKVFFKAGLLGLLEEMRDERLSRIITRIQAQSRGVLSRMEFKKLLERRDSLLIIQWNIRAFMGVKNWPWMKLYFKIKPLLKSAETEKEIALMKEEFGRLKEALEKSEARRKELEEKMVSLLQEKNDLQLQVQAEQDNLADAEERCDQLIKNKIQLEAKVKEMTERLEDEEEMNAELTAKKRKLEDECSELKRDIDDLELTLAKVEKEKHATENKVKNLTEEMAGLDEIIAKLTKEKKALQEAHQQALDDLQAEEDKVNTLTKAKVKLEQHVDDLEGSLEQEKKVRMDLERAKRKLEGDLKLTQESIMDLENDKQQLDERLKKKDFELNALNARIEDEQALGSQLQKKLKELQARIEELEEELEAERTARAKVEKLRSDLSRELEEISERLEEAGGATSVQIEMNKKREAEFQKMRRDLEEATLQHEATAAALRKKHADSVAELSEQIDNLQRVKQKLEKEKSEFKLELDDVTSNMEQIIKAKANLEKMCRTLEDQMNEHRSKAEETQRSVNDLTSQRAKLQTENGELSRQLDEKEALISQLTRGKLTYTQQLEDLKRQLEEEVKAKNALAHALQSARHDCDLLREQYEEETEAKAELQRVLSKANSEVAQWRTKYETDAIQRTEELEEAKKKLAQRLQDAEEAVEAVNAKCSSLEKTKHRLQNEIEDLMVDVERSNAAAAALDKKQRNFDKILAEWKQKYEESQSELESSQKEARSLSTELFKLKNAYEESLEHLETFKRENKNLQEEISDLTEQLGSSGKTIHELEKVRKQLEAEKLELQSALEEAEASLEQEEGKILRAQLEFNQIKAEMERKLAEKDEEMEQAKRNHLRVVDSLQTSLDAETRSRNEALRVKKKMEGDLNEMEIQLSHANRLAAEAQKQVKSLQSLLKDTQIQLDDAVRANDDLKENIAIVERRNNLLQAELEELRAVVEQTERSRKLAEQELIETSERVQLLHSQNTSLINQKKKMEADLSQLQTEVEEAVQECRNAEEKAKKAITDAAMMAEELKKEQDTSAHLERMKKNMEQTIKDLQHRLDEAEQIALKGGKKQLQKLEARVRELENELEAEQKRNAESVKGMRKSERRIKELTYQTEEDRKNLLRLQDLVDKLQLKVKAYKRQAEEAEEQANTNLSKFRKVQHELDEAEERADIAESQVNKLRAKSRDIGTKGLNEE

Target: T1, bovine cardiac myofibrils (Bos taurus, UniProt Q9BE39)
T1 construct: full-length cardiac myosin in the context of the native sarcomere, skinned myofibril assays were performed; from tissue; host or cells: bovine cardiac left ventricular tissue, detergent-skinned (Triton X-100) myofibrils
Test: Skinned myofibril ATPase assay (PK/LDH-coupled), CDMF75
Format: biochemical
Settings: inhibition of steady-state ATPase activity of bovine cardiac myofibrils at 75% Ca2+ activation (pCa75)
Experimental: To evaluate the effect of compounds on the ATPase activity of full-length cardiac myosin in the context of the native sarcomere, skinned myofibril assays were performed. Bovine cardiac myofibrils were obtained by homogenizing bovine cardiac left ventricular tissue in the presence of a detergent such as triton X-100. Such treatment removes membranes and a majority of the soluble cytoplasmic proteins but leaves intact the cardiac sarcomeric acto-myosin apparatus. Myofibril preparations retain the ability to hydrolyze ATP in an Ca^2+ regulated manner. ATPase activities of such myofibril preparations in the presence and absence of compounds were assayed at Ca^2+ concentrations activating to a defined fraction of the maximal rate (i.e., 25%, 75%). Small molecule agents were assessed for their ability to inhibit the steady-state ATPase activity of bovine cardiac myofibrils using pyruvate kinase and lactate dehydrogenase (PK/LDH)-coupled enzyme system. This assay regenerates myosin-produced ADP into ATP by oxidizing NADH, producing an absorbance change at 340 nm. Prior to testing small molecule agents, the bovine cardiac myofibrils were assessed for their calcium responsiveness and the calcium concentration that achieves either a 50% (pCa50) or 75% (pCa75) activation of the myofibril system was chosen as the final condition for assessing the inhibitory activity of the small molecule agents. All enzymatic activity was measured in a buffered solution containing 12 mM PIPES (piperazine-N,N′-bis(2-ethanesulfonic acid), 2 mM magnesium chloride at pH 6.8 (PM 12 buffer). Final assay conditions were 1 mg/mL of bovine cardiac myofibrils, 4 U/mL pyruvate kinase, 6 U/mL lactate dehydrogenase, 50 μM ATP, 0.1 mg/mL BSA (bovine serum albumin), 10 ppm antifoam, 1 mM DTT, 0.5 mM NADH, 1.5 mM PEP, 0.6 mM EGTA, and an amount of CaCl2 sufficient to achieve either 50% or 75% activation of the myofibril ATPase activity. Results for compounds tested are provided in Table A. Compounds tested were prepared in accordance with the synthetic procedures described herein.

Row | SMILES | CDMF75 IC15 [µM]
1 | Cc1nc(-c2ccc(CNC(=O)c3ccncc3O)cc2)no1 [Compound 63, 3-hydroxy-N-(4-(5-methyl-1,2,4-oxadiazol-3-yl)benzyl)isonicotinamide] | 22.8
2 | Cc1nc(-c2ccc(CNc3cc(C#N)ncn3)cc2)no1 [Compound 7, 6-((4-(5-methyl-1,2,4-oxadiazol-3-yl)benzyl)amino)pyrimidine-4-carbonitrile] | 0.4
3 | Cc1nc(-c2ccc(CNc3cc(C4CC4)ncn3)cc2)no1 [Compound 6, 6-cyclopropyl-N-(4-(5-methyl-1,2,4-oxadiazol-3-yl)benzyl)pyrimidin-4-amine] | 5.6
4 | Cc1nc(-c2ccc(CNc3cc(C(F)(F)F)ncn3)cc2)no1 [Compound 5, N-(4-(5-methyl-1,2,4-oxadiazol-3-yl)benzyl)-6-(trifluoromethyl)pyrimidin-4-amine] | 1.0
